Reference: PubChem BioAssay AID686979 (National Center for Advancing Translational Sciences (NCATS), 2013)
Screen size: about 420,000 compounds; about 50,000 (12%) were called active. The source calls these results inconclusive, neither active nor inactive. Calls follow the shape of the dose curve; as a rule, active = well fitted inhibition curve with a large enough effect; inconclusive = small, poorly fitted or top-dose-only effect; inactive = flat fitted curve, though single readings scatter.

Assay: qHTS for Inhibitors of human tyrosyl-DNA phosphodiesterase 1 (TDP1): qHTS in cells in presence of CPT; also: nearly all actives have a fitted effect of over 55% in size
Conditions: chicken DT40 Tdp1-/-;hTDP1 cells + 20 nM CPT, ATP luminescence, 48 h
Potency is read from the fitted curve at half-maximal effect.

SMILES	Potency
CCC(=O)N(c1ccccc1)C1(COC)CCN(CCc2cccs2)CC1	inconclusive: 23.1 µM
